From patent publication US11020405B2, “Method for prevention or treatment of diabetic complications” (KANGWON NATIONAL UNIVERSITY UNIVERSITY-INDUSTRY COOPERATION …, priority 2017, dated 2021) come the findings set out here.

The series in a line: Body weight and blood glucose monitoring in diabetic mice. The series is classed as in vivo, C57BL/6 mice. On the procedure:
FIGS. 19A and 19B show the preventive effects of midazolam against hyperglycemia-induced endothelial apoptosis in the aortic endothelium of diabetic mice. Six-week-old male C57BL/6 mice were administered with streptozotocin (150 mg/kg body weight) to give diabetic mouse models. One week after streptozotocin injection, diabetic mice were administered midazolam (10 mg/kg) by intraperitoneal injection daily for 14 days. The body weight of mice were measure in normal (20.7±0.1 g), diabetic (17.1±0.1 g), and midazolam supplemented diabetic mice (17.0±0.3 g). Blood glucose levels were also monitored in normal (124.0±12.0 mg/dL), diabetic (509.0±1.0 mg/dL), and midazolam supplemented diabetic mice (515.7±3.4 mg/dL). Aorta of mice were dissected and cut longitudinally to expose the endothelium. And then aortic segments were fixed for 15 min with 1% (w/v) paraformaldehyde in PBS, followed by treatment for 30 min with 70% (v/v) ethanol on ice. Apoptotic cells were stained by terminal deoxynucleotidyl transferase dUTP nick end labeling (TUNEL) with nuclear counterstaining with DAPI and visualized by confocal microscopy in the aortic endothelium. Representative images of endothelial apoptosis in aorta are shown in additional FIG. 19A. Scale bar, 100 μm. The results of endothelial apoptosis quantitatively analyzed by measurement of TUNEL staining in the aorta are shown in additional FIG. 19B (n=4 for normal and diabetic, n=6 for diabetic+Midazolam).
FIGS. 20A and 20B show the preventive effects of midazolam against hyperglycemia-induced renal vascular leakage in diabetic mice. Six-week-old male C57BL/6 mice were administered with streptozotocin (150 mg/kg body weight) to give diabetic mouse models. Two weeks after streptozotocin injection, diabetic mice were administered 10 mg/kg midazolam by intraperitoneal injection daily for 2 days, and vascular leakage was investigated. The body weight of mice were measure in normal (19.9±0.3 g), diabetic (17.7±0.3 g), and midazolam supplemented diabetic mice (17.7±0.3 g). Blood glucose levels were also monitored in normal (123.5±6.5 mg/dL), diabetic (505.0±89.0 mg/dL), and midazolam supplemented diabetic mice (500.3±63.3 mg/dL). The mice were anesthetized with 3% isoflurane, and 1.25 mg of FITC-dextran was injected into the right ventricle of each mouse and allowed to circulate for 5 min. […] The results of vascular leakage quantitatively analyzed by measuring the fluorescence intensity of FITC-dextran in the kidneys are shown in additional FIG. 20B. […]
FIGS. 21A and 21B show the preventive effects of midazolam against hyperglycemia-induced pulmonary vascular leakage in diabetic mice. […] Blood glucose levels were also monitored in normal (123.5±6.5 mg/dL), diabetic (505.0±89.0 mg/dL), and midazolam supplemented diabetic mice (500.3±63.3 mg/dL). […]

Structures are written as SMILES.

As to `Cc1ncc2n1-c1ccc(Cl)cc1C(c1ccccc1F)=NC2` [midazolam], the blood glucose level stood at 515.7 ± 3.4 mg/dL (Test Example 15: midazolam supplemented diabetic mice, 10 mg/kg intraperitoneal daily for 14 days); 500.3 ± 63.3 mg/dL (Test Example 16: midazolam supplemented diabetic mice, 10 mg/kg intraperitoneal daily for 2 days); 500.3 ± 63.3 mg/dL (Test Example 17: midazolam supplemented diabetic mice, 10 mg/kg intraperitoneal daily for 2 days); 515.7 ± 3.4 mg/dL (Test Example 18: midazolam supplemented diabetic mice, 10 mg/kg intraperitoneal daily for 14 days, B16F10 cells).
